Some of these results come from one statement about several compounds together.
Assay: Maximum tolerated dose (MTD) in mice
Type: in vivo
Details: B16 model studies
Description: All injections were given intraperitoneally (IP). […] The MTD is the maximum tolerated equivalent camptothecin dose.

Row | Substance | MTD
1 | PG-(10-OAc-CPT) | > 50 mg eq 20(S)-10-hydroxycamptoth
2 | PG-gly-(10-O-CPT) | > 50 mg eq 20(S)-10-hydroxycamptoth

Source: patent US7173041B2, “Polyglutamic acid-camptothecin conjugates and methods of preparation” (priority 2000, dated 2007)
